## Primary screen of a compound library

Amino acid sequences for entries named in this document (tags omitted). Residues count along the entry.
UniProt Q8IDJ8, 1-583: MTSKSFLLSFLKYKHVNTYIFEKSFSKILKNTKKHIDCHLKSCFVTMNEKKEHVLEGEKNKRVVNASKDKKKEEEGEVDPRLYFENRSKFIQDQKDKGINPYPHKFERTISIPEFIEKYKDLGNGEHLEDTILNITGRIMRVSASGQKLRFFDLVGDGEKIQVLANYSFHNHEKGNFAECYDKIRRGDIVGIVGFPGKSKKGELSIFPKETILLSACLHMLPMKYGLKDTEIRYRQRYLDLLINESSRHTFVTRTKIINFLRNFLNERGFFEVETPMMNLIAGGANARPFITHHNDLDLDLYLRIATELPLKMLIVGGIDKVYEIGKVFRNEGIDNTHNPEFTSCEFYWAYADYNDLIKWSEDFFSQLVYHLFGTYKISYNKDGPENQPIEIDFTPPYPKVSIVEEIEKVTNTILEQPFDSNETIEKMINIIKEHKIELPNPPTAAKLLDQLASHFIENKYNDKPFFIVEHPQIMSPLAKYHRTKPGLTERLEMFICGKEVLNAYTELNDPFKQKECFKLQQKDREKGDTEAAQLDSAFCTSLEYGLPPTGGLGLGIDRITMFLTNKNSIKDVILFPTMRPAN
UniProt I6X8D2, whole entry: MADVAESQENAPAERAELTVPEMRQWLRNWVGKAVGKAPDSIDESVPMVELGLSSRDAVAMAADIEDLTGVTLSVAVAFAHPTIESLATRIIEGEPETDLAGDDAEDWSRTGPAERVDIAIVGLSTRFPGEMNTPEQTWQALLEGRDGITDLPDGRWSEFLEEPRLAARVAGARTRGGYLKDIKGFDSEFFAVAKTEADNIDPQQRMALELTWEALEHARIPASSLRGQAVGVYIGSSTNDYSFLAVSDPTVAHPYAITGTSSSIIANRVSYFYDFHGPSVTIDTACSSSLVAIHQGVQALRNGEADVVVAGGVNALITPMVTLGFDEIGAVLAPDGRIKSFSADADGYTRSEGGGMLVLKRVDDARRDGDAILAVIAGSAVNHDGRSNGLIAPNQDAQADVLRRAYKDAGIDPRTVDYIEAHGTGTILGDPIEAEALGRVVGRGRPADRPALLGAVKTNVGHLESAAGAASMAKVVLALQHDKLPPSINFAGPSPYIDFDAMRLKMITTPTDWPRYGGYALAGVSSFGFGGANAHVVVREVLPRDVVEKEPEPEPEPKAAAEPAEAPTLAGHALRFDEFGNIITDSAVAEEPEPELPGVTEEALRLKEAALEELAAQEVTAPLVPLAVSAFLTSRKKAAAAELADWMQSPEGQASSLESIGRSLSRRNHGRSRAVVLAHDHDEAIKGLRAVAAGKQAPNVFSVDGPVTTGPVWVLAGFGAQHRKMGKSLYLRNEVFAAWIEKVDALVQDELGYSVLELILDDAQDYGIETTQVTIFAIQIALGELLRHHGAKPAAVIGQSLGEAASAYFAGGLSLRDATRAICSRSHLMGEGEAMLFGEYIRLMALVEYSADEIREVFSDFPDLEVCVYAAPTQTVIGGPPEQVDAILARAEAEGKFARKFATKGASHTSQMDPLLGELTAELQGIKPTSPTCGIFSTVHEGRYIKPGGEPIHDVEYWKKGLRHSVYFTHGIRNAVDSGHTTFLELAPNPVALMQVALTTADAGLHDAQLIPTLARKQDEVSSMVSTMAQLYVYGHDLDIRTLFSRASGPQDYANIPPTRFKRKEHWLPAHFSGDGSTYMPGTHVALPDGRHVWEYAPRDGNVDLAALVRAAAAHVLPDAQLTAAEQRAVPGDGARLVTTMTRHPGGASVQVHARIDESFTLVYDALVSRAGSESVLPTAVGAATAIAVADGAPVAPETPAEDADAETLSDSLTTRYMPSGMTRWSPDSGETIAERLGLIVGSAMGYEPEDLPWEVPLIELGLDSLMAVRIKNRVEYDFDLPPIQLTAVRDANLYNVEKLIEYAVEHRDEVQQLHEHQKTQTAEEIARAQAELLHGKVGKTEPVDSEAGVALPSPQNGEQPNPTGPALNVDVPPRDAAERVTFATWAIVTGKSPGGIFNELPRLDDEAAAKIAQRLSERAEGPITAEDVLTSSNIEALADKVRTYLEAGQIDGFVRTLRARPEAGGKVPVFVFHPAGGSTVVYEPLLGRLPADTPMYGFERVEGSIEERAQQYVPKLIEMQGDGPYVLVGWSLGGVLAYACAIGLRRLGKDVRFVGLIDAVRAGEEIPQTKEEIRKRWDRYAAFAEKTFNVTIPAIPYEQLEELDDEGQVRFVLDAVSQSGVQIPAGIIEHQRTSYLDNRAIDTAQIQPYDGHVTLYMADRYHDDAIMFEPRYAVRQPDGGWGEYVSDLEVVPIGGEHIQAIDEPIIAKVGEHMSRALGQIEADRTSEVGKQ
UniProt P9WFT3, whole entry: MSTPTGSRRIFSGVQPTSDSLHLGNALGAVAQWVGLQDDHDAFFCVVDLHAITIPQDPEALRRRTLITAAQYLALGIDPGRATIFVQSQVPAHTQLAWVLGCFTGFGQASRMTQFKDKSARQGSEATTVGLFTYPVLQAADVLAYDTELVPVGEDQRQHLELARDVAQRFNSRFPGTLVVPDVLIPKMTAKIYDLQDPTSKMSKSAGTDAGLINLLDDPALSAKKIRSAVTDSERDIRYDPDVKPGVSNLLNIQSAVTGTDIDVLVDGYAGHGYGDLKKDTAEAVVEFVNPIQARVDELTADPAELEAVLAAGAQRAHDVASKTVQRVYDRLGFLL
UniProt Q4DA54, 1-478: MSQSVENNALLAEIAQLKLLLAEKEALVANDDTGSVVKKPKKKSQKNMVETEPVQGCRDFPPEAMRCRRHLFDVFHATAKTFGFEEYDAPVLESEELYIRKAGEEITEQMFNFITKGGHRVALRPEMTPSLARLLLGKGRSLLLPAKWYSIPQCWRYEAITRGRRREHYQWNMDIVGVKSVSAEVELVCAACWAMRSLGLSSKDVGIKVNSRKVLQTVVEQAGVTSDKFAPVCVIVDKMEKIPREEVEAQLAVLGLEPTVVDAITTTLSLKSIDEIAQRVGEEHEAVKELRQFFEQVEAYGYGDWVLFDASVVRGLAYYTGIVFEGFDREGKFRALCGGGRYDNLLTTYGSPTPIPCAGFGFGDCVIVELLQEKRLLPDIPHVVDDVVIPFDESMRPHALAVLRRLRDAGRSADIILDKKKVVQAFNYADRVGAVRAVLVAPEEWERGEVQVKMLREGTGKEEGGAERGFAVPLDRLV

PfKRS1: 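Lysine-tRNA ligase, Plasmodium falciparum 3D7 (UniProt Q8IDJ8). Enzyme assay of the cytosolic lysyl-tRNA synthetase in 384-well plates, read by luminescence. Tested at 30 µM. Direction is inferred from only a few compounds that gave an IC50; most scored high, so higher reads as stronger inhibition. About 69,000 compounds were tested under these conditions; 0.071% (about 49) showed 50% or more at least once.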
Pks13 thioesterase: 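Polyketide synthase Pks13, Mycobacterium tuberculosis (UniProt I6X8D2). Enzyme assay of the thioesterase domain of polyketide synthase 13; the read-out is not stated. Compounds at 30 µM. The record gives no direction; the compounds picked for IC50 retests had high values, so higher reads as stronger inhibition. Size under these conditions: about 67,000 compounds, about 300 of them at 50% or above in at least one test.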
MtTrpRS: 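Tryptophan-tRNA ligase, Mycobacterium tuberculosis (UniProt P9WFT3). Enzyme assay of tryptophanyl-tRNA synthetase; the read-out is not stated. Compounds at 10 µM. Direction is not recorded; retested compounds ran higher, which suggests that high means inhibition. About 65,000 compounds were tested under these conditions; 0.098% (about 64) showed 50% or more at least once.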
TcHisRS: 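Histidine-tRNA ligase, Trypanosoma cruzi CL Brener (UniProt Q4DA54). Enzyme assay of histidyl-tRNA synthetase; the read-out is not stated. Concentration: 30 µM. The record gives no direction; compounds that gave an IC50 in retests scored well above the rest, so higher reads as stronger inhibition. Of about 69,000 compounds tested this way, about 31 (0.045%) reached 50% or more in at least one test.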

Results are given as percent effect. How 0% and 100% were set is not recorded. Most values in the screen are low, and negative values occur. The compounds are a random part of those screened.

compound: CC(=O)N1CCCn2nc(CNS(=O)(=O)N3CCCCCC3)cc2C1
PfKRS1: 5.689%
Pks13 thioesterase: -3.495%
MtTrpRS: 0.08353%
TcHisRS: 1.653%

compound: O=C(CCSc1ccccc1)NCC1CCN(Cc2ccsc2)CC1
PfKRS1: 2.779%
Pks13 thioesterase: -2.85%
MtTrpRS: 3.375%
TcHisRS: 13.57%

compound: CS(=O)(=O)N1CCN(C(=O)c2[nH]c3ccc(Cl)cc3c2Cl)CC1
PfKRS1: 6.018%
Pks13 thioesterase: 5.431%
MtTrpRS: -3.008%
TcHisRS: -6.897%

compound: CC(C)Oc1ncc(C(=O)N2CCC(NC(=O)C3CC3)CC2)cc1Cl
PfKRS1: -7.512%
Pks13 thioesterase: -19.94%
MtTrpRS: -1.398%
TcHisRS: 3.306%

compound: COCC1c2c(cnn2C)CCN1C(=O)c1cccn1C (stereo not drawn)
PfKRS1: 5.552%
Pks13 thioesterase: -6.937%
TcHisRS: 4.42%

compound: CCC(O)CN1CCN(C(=O)c2cccn2Cc2cccs2)CC1 (stereo not drawn)
PfKRS1: 5.44%
Pks13 thioesterase: -22.01%
MtTrpRS: -1.023%
TcHisRS: 0.7519%

compound: CC(C)[C@H](Nc1nc(C2CCCC2)nc2c1cnn2C)C(N)=O
PfKRS1: 4.86%
Pks13 thioesterase: -20.67%
MtTrpRS: 1.206%
TcHisRS: 4.046%

compound: CC(C#N)CSc1ccccc1NCC(=O)Nc1ccc(F)cc1 (stereo not drawn)
PfKRS1: -2.469%
Pks13 thioesterase: -15.74%
MtTrpRS: -2.78%
TcHisRS: 1.653%

compound: COc1ccc2c(c1)OC1(CCN(Cc3ccccc3C)CC1)CC2=O
PfKRS1: 3.571%
Pks13 thioesterase: 17.31%
TcHisRS: 1.136%

compound: Cc1nnc(N2CC[C@@]3(O)CCNC[C@H]3C2)c2ccccc12
PfKRS1: 1.836%
Pks13 thioesterase: -6.268%
MtTrpRS: 11.19%
TcHisRS: 4.103%

compound: CCNC(=O)NC(=O)CN1CCC(c2cccc(F)c2)C1 (stereo not drawn)
PfKRS1: -1.272%
Pks13 thioesterase: -13.16%
MtTrpRS: -0.1883%
TcHisRS: 7.692%

compound: CN(C)c1cnnc(N2CCN(C(=O)CCC3CCCCC3)CC2)c1
PfKRS1: 1.03%
Pks13 thioesterase: -20.71%
MtTrpRS: -2.66%
TcHisRS: 1.031%

compound: COc1cc(N2C[C@H]3CCC[C@@H](CN4CCOCC4)[C@H]3C2)ncn1
PfKRS1: 0.01173%
Pks13 thioesterase: -6.339%
MtTrpRS: 3.896%
TcHisRS: 7.563%

compound: CCC(O)CN1CCN(C(=O)c2ccnc(N(C)C)c2)CC1 (stereo not drawn)
PfKRS1: 1.943%
Pks13 thioesterase: -7.464%
MtTrpRS: -0.6966%
TcHisRS: 0.8333%

compound: O=C(Cn1cc(C2CC2)nn1)NC(c1ccc(Cl)cc1)C1CC1 (stereo not drawn)
PfKRS1: 1.757%
Pks13 thioesterase: -49.29%
MtTrpRS: -5.782%
TcHisRS: 5.946%

compound: Cc1nnsc1C(=O)N1CCC2(CC1)c1nc[nH]c1CCN2CC(C)C
PfKRS1: 8.009%
Pks13 thioesterase: -18.21%
MtTrpRS: 2.487%
TcHisRS: 3.734%

The values are deposited in ChEMBL (CHEMBL3988442, “University of Dundee, Small-Polar-MMV Screening Library” (2021)).